Reference: patent US7320890B2 (University of Utah Research Foundation, priority 2001, dated 2008)

Experiment: general procedure: Fmoc solid-phase peptide synthesis; rink amide resin
Conditions: lipidation step, acetate (TFA replaced by acetic acid)

## H-HHYRRRHKSRRRLHH-OH (SEQ ID NO:2)
  final purity (method not given): >93%
With respect to starting amounts of peptide
  step yield: >80%
